Measured values: publication doi:10.1101/2025.11.01.686042
No constants are given. Whether binding was seen depends on the method and setting. In cells and extracts the contact can be indirect. Some binding calls cover weakened binding; strength is not graded here.

Chains of the proteins cited; added tags and fusions are not shown. Residues count along the entry.
UniProt P97798, residues 37-1492: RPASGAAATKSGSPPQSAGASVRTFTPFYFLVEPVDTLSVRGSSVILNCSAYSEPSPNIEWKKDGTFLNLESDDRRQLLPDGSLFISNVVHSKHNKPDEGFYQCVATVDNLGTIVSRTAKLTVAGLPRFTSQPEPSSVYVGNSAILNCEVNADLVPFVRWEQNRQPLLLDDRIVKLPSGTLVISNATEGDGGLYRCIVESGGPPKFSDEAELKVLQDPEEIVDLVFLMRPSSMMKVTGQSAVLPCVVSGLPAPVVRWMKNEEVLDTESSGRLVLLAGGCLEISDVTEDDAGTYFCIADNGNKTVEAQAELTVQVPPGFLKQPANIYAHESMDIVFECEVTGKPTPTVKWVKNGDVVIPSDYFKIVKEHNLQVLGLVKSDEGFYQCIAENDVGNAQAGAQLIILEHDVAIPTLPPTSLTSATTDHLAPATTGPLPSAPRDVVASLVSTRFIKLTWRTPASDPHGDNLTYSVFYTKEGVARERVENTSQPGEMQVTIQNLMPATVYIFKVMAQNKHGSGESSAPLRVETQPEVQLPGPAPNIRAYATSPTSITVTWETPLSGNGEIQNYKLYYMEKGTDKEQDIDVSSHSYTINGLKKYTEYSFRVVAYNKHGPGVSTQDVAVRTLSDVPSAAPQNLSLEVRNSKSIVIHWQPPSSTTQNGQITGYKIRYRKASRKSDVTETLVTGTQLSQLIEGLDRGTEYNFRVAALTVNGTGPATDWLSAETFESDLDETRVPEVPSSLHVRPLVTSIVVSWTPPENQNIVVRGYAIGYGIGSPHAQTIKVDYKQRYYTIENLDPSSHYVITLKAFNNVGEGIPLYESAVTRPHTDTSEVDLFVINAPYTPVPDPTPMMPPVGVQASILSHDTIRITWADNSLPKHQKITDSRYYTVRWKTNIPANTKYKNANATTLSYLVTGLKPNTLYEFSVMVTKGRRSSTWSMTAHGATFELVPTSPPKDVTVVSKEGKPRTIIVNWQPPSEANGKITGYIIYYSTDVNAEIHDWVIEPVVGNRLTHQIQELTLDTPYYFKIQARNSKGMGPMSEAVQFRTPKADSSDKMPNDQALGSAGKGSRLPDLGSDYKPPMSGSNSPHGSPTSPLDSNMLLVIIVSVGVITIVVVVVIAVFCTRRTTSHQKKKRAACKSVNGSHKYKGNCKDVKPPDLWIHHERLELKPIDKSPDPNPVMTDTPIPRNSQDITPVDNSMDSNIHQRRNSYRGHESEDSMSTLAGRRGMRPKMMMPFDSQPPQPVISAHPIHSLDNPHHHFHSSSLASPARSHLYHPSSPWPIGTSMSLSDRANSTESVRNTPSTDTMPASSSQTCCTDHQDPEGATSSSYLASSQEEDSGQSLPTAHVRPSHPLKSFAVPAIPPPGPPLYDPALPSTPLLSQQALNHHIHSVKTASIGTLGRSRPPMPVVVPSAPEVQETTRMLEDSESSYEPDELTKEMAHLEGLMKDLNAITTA
UniProt P43146, residues 26-1447: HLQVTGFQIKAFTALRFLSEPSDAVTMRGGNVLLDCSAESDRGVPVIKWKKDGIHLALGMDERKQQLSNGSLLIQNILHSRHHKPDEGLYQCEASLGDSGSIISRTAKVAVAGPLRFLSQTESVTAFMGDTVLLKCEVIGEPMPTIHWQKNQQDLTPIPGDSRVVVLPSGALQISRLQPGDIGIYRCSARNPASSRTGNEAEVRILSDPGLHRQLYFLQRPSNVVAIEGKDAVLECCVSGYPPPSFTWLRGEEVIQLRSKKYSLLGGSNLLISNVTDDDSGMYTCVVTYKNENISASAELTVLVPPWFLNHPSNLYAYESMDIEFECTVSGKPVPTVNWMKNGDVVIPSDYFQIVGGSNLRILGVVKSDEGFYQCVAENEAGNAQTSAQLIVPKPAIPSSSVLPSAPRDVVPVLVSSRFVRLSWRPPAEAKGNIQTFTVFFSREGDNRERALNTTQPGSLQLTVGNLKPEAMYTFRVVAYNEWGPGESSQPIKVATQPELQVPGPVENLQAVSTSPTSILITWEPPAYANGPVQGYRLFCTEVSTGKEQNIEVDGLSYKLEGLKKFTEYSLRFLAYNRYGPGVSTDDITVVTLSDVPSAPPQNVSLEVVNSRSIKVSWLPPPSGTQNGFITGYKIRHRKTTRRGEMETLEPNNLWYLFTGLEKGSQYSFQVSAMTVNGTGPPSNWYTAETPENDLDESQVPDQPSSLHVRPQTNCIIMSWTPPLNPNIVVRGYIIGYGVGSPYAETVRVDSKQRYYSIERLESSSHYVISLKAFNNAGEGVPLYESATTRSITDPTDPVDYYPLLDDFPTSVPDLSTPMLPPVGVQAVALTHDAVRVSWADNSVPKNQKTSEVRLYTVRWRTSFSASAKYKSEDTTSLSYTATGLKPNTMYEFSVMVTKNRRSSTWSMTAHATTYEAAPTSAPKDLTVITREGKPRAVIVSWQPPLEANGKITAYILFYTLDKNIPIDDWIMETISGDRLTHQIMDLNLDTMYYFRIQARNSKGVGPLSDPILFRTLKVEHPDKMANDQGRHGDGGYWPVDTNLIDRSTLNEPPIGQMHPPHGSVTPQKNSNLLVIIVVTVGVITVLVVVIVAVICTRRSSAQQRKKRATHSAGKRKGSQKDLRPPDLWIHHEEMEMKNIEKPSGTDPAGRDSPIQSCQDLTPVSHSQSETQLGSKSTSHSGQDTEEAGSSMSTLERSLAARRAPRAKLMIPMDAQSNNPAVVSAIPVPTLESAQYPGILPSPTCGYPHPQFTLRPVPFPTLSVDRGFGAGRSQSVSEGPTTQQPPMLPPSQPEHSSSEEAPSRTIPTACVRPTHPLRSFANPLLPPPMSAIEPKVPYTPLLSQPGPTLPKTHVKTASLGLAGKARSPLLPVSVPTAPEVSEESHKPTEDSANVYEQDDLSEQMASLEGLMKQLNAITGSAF
UniProt P70211, residues 26-1447: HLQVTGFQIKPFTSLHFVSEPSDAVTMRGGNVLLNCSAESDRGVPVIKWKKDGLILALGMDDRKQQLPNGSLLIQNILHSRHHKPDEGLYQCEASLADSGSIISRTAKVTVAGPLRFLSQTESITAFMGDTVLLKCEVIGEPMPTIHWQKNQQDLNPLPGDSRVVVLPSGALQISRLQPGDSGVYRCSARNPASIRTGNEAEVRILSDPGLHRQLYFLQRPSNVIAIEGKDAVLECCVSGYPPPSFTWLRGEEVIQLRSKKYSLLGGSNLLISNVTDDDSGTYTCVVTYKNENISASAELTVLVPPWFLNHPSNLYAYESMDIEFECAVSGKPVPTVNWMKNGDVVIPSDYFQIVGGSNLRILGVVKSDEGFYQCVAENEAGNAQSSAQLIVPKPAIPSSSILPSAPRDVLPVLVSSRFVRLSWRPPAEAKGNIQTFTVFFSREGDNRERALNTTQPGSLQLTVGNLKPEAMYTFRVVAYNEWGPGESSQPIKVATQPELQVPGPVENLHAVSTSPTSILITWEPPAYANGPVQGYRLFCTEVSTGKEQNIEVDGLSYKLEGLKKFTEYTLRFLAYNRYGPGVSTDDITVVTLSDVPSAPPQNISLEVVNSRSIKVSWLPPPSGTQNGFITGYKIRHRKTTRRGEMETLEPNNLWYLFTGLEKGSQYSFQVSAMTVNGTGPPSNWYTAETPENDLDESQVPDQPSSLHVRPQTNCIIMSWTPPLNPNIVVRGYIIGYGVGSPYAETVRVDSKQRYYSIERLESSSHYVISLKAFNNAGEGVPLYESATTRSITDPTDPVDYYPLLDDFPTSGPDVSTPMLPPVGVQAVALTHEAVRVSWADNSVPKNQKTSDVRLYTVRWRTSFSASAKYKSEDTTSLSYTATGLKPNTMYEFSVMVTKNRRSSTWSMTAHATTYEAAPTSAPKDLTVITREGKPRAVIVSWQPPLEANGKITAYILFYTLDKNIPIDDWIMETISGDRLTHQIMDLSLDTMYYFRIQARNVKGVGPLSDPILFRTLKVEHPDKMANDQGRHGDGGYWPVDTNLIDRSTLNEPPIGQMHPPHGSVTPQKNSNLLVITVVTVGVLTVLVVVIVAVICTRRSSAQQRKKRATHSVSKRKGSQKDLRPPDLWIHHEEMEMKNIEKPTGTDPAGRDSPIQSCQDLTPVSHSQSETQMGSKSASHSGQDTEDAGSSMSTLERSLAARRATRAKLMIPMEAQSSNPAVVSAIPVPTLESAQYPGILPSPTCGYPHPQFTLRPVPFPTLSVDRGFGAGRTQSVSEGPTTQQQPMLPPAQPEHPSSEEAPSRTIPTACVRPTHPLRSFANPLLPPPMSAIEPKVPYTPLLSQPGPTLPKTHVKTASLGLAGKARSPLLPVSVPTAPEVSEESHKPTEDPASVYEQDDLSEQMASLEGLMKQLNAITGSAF

Columns and labels:
Test in all cases: co-IP
[1] = target: Neogenin1-Myc (pEF-Cyto-Neogenin1-Myc) (UniProt P97798)
[2] = target: HA-tagged Dcc (pcDNA3-hDcc-3XHA) (human) (UniProt P43146)
[3] = target: endogenous Neogenin (Neo1) (P14 mouse brain) (mouse (endogenous in P14 brain)) (UniProt P97798)
[4] = target: endogenous Dcc (P14 mouse brain) (mouse (endogenous in P14 brain)) (UniProt P70211)

Question: “HA-tagged Dcc (pcDNA3-hDcc-3XHA) (from UniProt P43146 26-1447) (receptor)” was tested. Which binding [1] did it give?
Answer: binds

Question: How did the binding [2] turn out when “Neogenin1-Myc (pEF-Cyto-Neogenin1-Myc) (from UniProt P97798 37-1492) (receptor)” was run?
Answer: binds

Question: Which binding [3] does the source give for “endogenous Dcc (P14 mouse brain) (from UniProt P70211 26-1447) (receptor)” here?
Answer: binds

Question: With “endogenous Neogenin (Neo1) (P14 mouse brain) (from UniProt P97798 37-1492) (receptor)” as the substance, how does the binding [4] read?
Answer: binds
